# Hit rate of the full screen: of about 52,000 sequences, about 210 (0.4%) were called active.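 Rule for the calls: active = gene whose silencing raises cell survival under the drug, median off-target-corrected z-score across its silencing RNAs 2 or more; inactive = the rest.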 This is one part of the list.
# Experiment: Resistance to Poly (ADP-Ribose) Polymerase inhibitor: Gene Identification via Genome-wide siRNA Screen
# Settings: mouse BRCA2 R2336H ES cells, olaparib, CellTiter-Glo viability; active compounds read high
# Summary of the method: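 Mouse BRCA2 R2336H ES cells were reverse-transfected with siRNA (20 nM final), treated at 48 h with 500 nM olaparib, and read by CellTiter-Glo after 72 h. Scores: MAD-based z per siRNA, median per gene, seed off-target correction.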
row,Sequence,z-score
1,GCAUGUUUACGUUCCUGACTT against Slc2a12,inactive: 0.28
2,GGAUGUCCACAACAAGUGATT against Glra1,inactive: 0.0139
3,CGAAGGAGCAACGGUAAAATT against Fkbp5,inactive: 1.09
4,GGAUCAGCUGUCAUCUGUGTT against Ssb4,inactive: 0.432
5,CCCUAAUAUCACAUGGUGGTT against Cd79a,inactive: 0.376
6,GCACGAAGGUCGUUAUUAUTT against 5031439A09Rik,inactive: 3.65
7,GGCAAUCAGGACGUAAAGUTT against Kist,inactive: -0.373
8,CCAGUGAACUUUAUGGACUTT against Gm111,inactive: 0.0129
9,CGUAGGACACGUGAAUUGUTT against F7,inactive: 1.43
10,GCAUGGCUAUUUAACAUUCTT against Rpl7l1,inactive: -1.02
11,GCAGACAGAGUUUUAACGUTT against Fancl,inactive: 1.1
12,GGAUACAAUGUCCGAGUGCTT against Tie1,inactive: 0.681
13,GGCUCUAAAACUGUCAGACTT against 1700010M22Rik,inactive: 0.374
14,GGCUCAAAGGAGGGUAGAGTT against 9230106L18Rik,inactive: -0.772
15,GGAAAUGAUCACAGCUGGGTT against Ccl20,inactive: -0.0712
16,CCACUCUAAAGAGUUGUACTT against Surf1,inactive: 0.448
17,CCUGCACUACUGGAUUGGATT against Vill,inactive: 0.37
18,GCCAAGAUUGUCAAAGAUCTT against Pgk1,inactive: -0.242
19,CGAUUCAAGGUAACAUAGATT against Esrrg,inactive: 1.7
20,GCGCAAGUUGUGCAGAACUTT against Asb5,inactive: -2.37
21,GGGAUUGAAUCAUAGUUAGTT against 4933417L02Rik,inactive: 0.0448
22,GCGAAACCGUGUUUCUCUATT against Skil,inactive: 0.0665
23,CCCAGCUCUACUUUUUCUCTT against Olfr971,inactive: 0.893
24,GCACAGCCUGGUCAAAAACTT against S100a16,inactive: -0.488
25,GCCAAGAGGUUUUAUGGUUTT against Trim38,inactive: -0.573
26,GGAAGAUGUUACUUCAAAGTT against Anln,inactive: 0.0573
27,GCAAACGCAGCAGAAUAGCTT against 2900091E11Rik,inactive: 0.534

# A few values from the list.
# z-score, GCAUGGCUAUUUAACAUUCTT against Rpl7l1 reads inactive: -1.02
# z-score, CGAUUCAAGGUAACAUAGATT against Esrrg reads inactive: 1.7

# Next part:

row,Sequence,z-score
1,CCGCUUCAAUGUCUACUGCTT against Bcan,inactive: -1.09
2,GGAACAAAGGAUCUGUCUGTT against Sec23a,inactive: -0.591
3,CGCUCCUUUUUGUUAAUGCTT against Psmf1,inactive: -0.919
4,CCACUGUUACCAUUAUAAUTT against Pramel5,inactive: 0.469
5,AGAGACUAGGGAUGCAUCUTT against Olfr462,inactive: 2.89
6,CCGCCCUGAUUAUUGCCAUTT against Edar,inactive: 0.83
7,GGGACACCGUCAAUCUUUATT against Frzb,inactive: 0.72
8,GCAUCUUGUUUUAAUGACUTT against Car5b,inactive: 0.926
9,GCCUCAAUUGUUUACUUAUTT against Edn2,inactive: 0.0991
10,GCAUUACUAAUCAAAGUGGTT against Abcb1b,inactive: 0.168
11,GCAGGAAGUAAAAUCUCUUTT against 1300007B12Rik,inactive: -1.3
12,GGCAAAAGAAUCGUUCUCATT against Ppat,inactive: -1
13,GGUUCUGACAGACAAAAUUTT against 3300001P08Rik,inactive: -3.2
14,CCAUUGUUUUCCAGUUCCATT against A930013B10Rik,inactive: -2.04
15,GGAAGAGACCAAAGUAUAATT against Map2k7,inactive: -2.03
16,CGUACAUCCUAAAAGUGGGTT against Pcdhac1,inactive: 0.075
17,GCAUGUCAGACAAUAAAGUTT against D15Bwg0669e,inactive: 0.837
18,GGGAAAAAUGGUCAGAUUATT against AI427652,inactive: -0.0496
19,GGAAUCUGUUGUUUCUCUUTT against Grcc3f,inactive: 0.476
20,GCGUGUCUUGCUCUUUUGATT against Usp22,inactive: 2.27
21,CCAGAUCUCAAAAAUCCAUTT against Rage,inactive: 0.261
22,GCUCCAACACCCUGUGAAUTT against Tessp2,inactive: -1.93
23,GAGAUGGACAAUCUCAUGGTT against Pcp2,inactive: 3.87
24,GGAGAGUUACGACGUAUUCTT against Ckb,inactive: 0.48
25,GCUAUGUUGUUAAAACGAATT against Amotl2,inactive: 0.313
26,GGUCAAAAAAUAUUGAUGCTT against Itgav,inactive: 0.113
27,GGCACGUACCAUUGAGAUATT against Ina,inactive: 0.318

row,Sequence,z-score
1,GAAUCCUUGUUCUAUGCUCTT against V1rd16,inactive: 0.711
2,GGGUCAUCAGAGCUGACAGTT against BC031407,inactive: 0.592
3,GGAUCUGUGAGAAUCAUAGTT against 9630005B12Rik,inactive: 0.0946
4,GGAGAUUAACAACAUGAAGTT against Brap,inactive: -0.183
5,GGGAACAGCAUCUCUGUCATT against E130115E03Rik,inactive: -0.944
6,GGUACUGAAUUCAACAAACTT against BC004701,inactive: 0.117
7,GGGAGAGAAUGUGUUUGGUTT against Rps14,inactive: -3.15
8,GGACUGAGAUCAAAUUCUCTT against Ptges2,inactive: 0.596
9,GCCACUGUUGUGUAAACUATT against 5830461H18Rik,inactive: -0.679
10,CGGUGUUUUGGUUAAAUGUTT against Slamf6,inactive: 0.853
11,GGAAAGCAAGUGCACAAAUTT against Slco1a4,inactive: -0.422
12,UUCGUUCAAAUGAAGCUUCTT against AI505652,inactive: -0.697
13,GGCAAAUUUGGAUGUGUGUTT against Dsg3,inactive: 2.9
14,GCUUUGUGGCUCAAGCCAATT against 2810451A06Rik,inactive: 0.437
15,GCCAAAUGGCUGUAUCUAUTT against Lgi2,inactive: -0.388
16,GGAGUGGCUCUGUUUGAACTT against Bsn,inactive: 0.214
17,GGUUCCACUCUGAACUUAATT against Es1,inactive: -0.0429
18,GGGAAUUCACACUGUCUGGTT against 0610011I04Rik,inactive: -1.01
19,GGGUCUCUAUGGAAUCAAUTT against Ldh1,inactive: 0.295
20,GGUCAUCGUGUUUGGUUUCTT against BC057552,inactive: 0.0965
21,GGAUGCGGAUCAGAACUACTT against C1ql4,inactive: -0.982
22,GCUGAUGUCUGAGGGUGUATT against 1700028O09Rik,inactive: 0.0462
23,GCGACACUGAAUUCUUUUATT against Ccng2,inactive: 2.31
24,GGGACCAACUCCUAACAGATT against Csf2rb1,inactive: 2.11
25,GACCUACUUUCCUCACUUUTT against Hba-a1,inactive: 0.205
26,GGAAAAUUGUCCAUGUAAATT against Tex15,inactive: -0.464
27,GUCACCUAGCCUUUGUUGATT against Olfr1038,inactive: 0.504

# A run of entries from the list above:
row,Sequence,z-score
8,CCAGUGAACUUUAUGGACUTT against Gm111,inactive: 0.0129
9,CGUAGGACACGUGAAUUGUTT against F7,inactive: 1.43
10,GCAUGGCUAUUUAACAUUCTT against Rpl7l1,inactive: -1.02
11,GCAGACAGAGUUUUAACGUTT against Fancl,inactive: 1.1
12,GGAUACAAUGUCCGAGUGCTT against Tie1,inactive: 0.681
13,GGCUCUAAAACUGUCAGACTT against 1700010M22Rik,inactive: 0.374
14,GGCUCAAAGGAGGGUAGAGTT against 9230106L18Rik,inactive: -0.772

# The list continues.

row,Sequence,z-score
1,GGUCUUUAUACAGAGAUAATT against Narg1,inactive: 0.392
2,GGUAACAAAUGCUGUUUUATT against Cul1,inactive: -0.136
3,GGUUAUAUAAGCAUCAAGGTT against Adamts18,inactive: 0.256
4,GCGAUAAAGCCAACACACCTT against LOC329416,inactive: 1.29
5,GUACUUGAAACGAACUGGATT against BC038881,inactive: -1.37
6,GGAGAAGACAGCAAAGUACTT against Ppap2b,inactive: -0.0301
7,GGACUAGCGGACAUGGAUCTT against Kntc2,inactive: -0.357
8,GGAGAUUGUAGAGGACGUATT against U2af2,inactive: -2.93
9,GGGCAAAUCCUUUAGUUUGTT against Ysg2,inactive: 0.117
10,GGAAAUCCGUGCAGAAAUUTT against Man1b,inactive: 1.8
11,GGAAGAAGAGAAACACGAGTT against Xpa,inactive: -0.152
12,GGCUCCUAGUGAUUAAAAGTT against 4930578I06Rik,inactive: 0.334
13,GGAGGAUUACAACACUGUUTT against Enpp3,inactive: 0.405
14,GCCGUUUACCUUAGUCUGUTT against 2810410C14Rik,inactive: -0.791
15,GGACCUUGGCCUUACACAATT against Astn2,inactive: -1.3
16,GGAGCUGAGAAACAAGAUUTT against Bspry,inactive: 1.99
17,CGCACAAUUACCUCAGCAATT against Rassf3,inactive: -0.485
18,GGAUGACUUCAAAUCAGAATT against Tnip2,inactive: -0.0528
19,GCGGCAUAUGCCUACUCUUTT against Slc6a12,active: -1.46
20,GCGUGUACCCUUUCUAGUGTT against Slc18a3,inactive: 0.958
21,GGGCACAUACUCAGAUGAATT against Ngfr,inactive: -0.5
22,GGAACUGUCCGAUCUUAGATT against 9930111I18Rik,inactive: -0.233
23,GGAUGAUGACAAUUUUGAATT against Nap1l4,inactive: -0.13
24,GCAGGAAUUCUUGAAUUAUTT against Ly75,inactive: -0.103

# From PubChem BioAssay AID1347423 (Functional Genomics Laboratory (NCATS/FGL), 2020)
